Measurements published in paper PMC6733791.
Like-named read-outs stand apart in the source and are kept apart here. No constants are given. Whether binding was seen depends on the method and setting. Binding seen in cells or lysates may run through a third protein. These calls come from enrichment with a bait or labelling near it, and not all partners need be listed.

Protein sequences, listed by entry. Tags and fused reporters are not part of them.
UniProt P11142: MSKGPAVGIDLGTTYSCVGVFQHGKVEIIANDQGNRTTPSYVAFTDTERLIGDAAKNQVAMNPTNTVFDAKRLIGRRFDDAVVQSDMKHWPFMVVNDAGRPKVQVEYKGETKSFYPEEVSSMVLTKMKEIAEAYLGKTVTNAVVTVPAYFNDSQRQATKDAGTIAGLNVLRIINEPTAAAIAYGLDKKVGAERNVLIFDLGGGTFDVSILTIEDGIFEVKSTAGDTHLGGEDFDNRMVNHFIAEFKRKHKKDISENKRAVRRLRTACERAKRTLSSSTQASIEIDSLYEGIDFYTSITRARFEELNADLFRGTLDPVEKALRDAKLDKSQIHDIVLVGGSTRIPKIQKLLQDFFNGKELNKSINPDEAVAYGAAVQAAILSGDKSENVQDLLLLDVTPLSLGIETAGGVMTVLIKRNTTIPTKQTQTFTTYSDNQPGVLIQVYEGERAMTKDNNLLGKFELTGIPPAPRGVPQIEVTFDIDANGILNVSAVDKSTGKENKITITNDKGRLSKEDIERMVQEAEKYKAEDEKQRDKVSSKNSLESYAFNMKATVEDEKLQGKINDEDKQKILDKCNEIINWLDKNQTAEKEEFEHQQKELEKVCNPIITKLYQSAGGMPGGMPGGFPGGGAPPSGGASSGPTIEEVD

B1: CCT2, endogenous (protein, UniProt P78371 1-535)
chain: MASLSLAPVNIFKAGADEERAETARLTSFIGAIAIGDLVKSTLGPKGMDKILLSSGRDASLMVTNDGATILKNIGVDNPAAKVLVDMSRVQDDEVGDGTTSVTVLAAELLREAESLIAKKIHPQTIIAGWREATKAAREALLSSAVDHGSDEVKFRQDLMNIAGTTLSSKLLTHHKDHFTKLAVEAVLRLKGSGNLEAIHIIKKLGGSLADSYLDEGFLLDKKIGVNQPKRIENAKILIANTGMDTDKIKIFGSRVRVDSTAKVAEIEHAEKEKMKEKVERILKHGINCFINRQLIYNYPEQLFGAAGVMAIEHADFAGVERLALVTGGEIASTFDHPELVKLGSCKLIEEVMIGEDKLIHFSGVALGEACTIVLRGATQQILDEAERSLHDALCVLAQTVKDSRTVYGGGCSEMLMAHAVTQLANRTPGKEAVAMESYAKALRMLPTIIADNAGYDSADLVAQLRAAHSEGNTTAGLDMREGTIGDMAILGITESFQVKRQVLLSAAEAAEVILRVDNIIKAAPRKRVPDHHPC

What was measured:
Experiment in all cases: affinity purification with mass spectrometry; immunoprecipitates of anti-YAP and anti-TFCP2 antibodies from Bel-7402 cells; gel bands digested with trypsin, Nano-LC ESI-QTOF-MS, MASCOT against Swiss-Prot
[1] = molecular target: Yes-associated protein (YAP), endogenous (human (endogenous in Bel-7402 and SMMC-7721)) (UniProt P46937)
[2] = molecular target: T1, transcription factor CP2 (TFCP2), endogenous (human (endogenous in Bel-7402 and SMMC-7721)) (UniProt Q12800)
T1 sequence: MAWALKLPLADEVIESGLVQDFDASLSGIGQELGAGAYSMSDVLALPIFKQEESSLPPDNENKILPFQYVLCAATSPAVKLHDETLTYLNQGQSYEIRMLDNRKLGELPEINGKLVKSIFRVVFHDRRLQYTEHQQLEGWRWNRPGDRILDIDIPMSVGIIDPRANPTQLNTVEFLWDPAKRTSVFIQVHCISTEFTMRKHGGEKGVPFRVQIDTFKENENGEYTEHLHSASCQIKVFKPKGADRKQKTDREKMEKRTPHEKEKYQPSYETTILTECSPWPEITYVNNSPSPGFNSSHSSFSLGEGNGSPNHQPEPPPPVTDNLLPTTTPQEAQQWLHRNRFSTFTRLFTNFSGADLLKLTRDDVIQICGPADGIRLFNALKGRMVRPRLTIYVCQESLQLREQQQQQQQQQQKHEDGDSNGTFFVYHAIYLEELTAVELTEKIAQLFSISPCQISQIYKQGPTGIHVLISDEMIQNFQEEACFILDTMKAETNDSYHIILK

[3] = molecular target: Yes-associated protein (YAP), endogenous (human (endogenous in Bel-7402 and SMMC-7721)) (UniProt P46937); remark: listed apart in the source
[4] = molecular target: T1, transcription factor CP2 (TFCP2), endogenous (human (endogenous in Bel-7402 and SMMC-7721)); remark: listed apart in the source

Molecule | binding [1] | binding [2] | binding [3] | binding [4]
VCP, endogenous (from UniProt P55072 1-806) | binds | binds | – | –
p53, endogenous (from UniProt P04637 1-393) | binds | binds | – | –
HSPA8, endogenous (from UniProt P11142 1-646) | – | binds | – | –
B1 | – | – | binds | binds
